In article PMC7858674 one finds binding data, which are given here for 1 substance.

Amino acid sequences for entries named in this document (tags omitted).
UniProt Q02248: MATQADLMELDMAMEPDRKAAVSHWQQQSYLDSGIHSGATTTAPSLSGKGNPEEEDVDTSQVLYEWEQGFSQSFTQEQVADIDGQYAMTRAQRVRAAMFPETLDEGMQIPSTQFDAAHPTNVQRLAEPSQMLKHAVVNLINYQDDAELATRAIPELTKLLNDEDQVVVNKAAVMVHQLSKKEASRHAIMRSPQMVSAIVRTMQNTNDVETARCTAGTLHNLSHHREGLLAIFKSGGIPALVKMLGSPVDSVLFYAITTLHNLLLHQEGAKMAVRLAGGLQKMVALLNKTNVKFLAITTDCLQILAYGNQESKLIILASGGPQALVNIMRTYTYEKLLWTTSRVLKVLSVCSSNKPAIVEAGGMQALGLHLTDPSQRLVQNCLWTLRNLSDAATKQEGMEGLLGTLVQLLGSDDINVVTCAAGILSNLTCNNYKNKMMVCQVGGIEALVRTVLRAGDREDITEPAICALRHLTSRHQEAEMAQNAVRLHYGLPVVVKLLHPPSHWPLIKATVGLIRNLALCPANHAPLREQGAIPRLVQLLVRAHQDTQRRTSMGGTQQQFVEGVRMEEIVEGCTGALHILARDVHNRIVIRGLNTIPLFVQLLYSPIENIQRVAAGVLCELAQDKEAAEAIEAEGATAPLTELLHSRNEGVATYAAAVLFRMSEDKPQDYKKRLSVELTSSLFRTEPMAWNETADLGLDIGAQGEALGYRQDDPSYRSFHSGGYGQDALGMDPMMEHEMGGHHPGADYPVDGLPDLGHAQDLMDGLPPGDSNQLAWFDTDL
UniProt Q3TKT4: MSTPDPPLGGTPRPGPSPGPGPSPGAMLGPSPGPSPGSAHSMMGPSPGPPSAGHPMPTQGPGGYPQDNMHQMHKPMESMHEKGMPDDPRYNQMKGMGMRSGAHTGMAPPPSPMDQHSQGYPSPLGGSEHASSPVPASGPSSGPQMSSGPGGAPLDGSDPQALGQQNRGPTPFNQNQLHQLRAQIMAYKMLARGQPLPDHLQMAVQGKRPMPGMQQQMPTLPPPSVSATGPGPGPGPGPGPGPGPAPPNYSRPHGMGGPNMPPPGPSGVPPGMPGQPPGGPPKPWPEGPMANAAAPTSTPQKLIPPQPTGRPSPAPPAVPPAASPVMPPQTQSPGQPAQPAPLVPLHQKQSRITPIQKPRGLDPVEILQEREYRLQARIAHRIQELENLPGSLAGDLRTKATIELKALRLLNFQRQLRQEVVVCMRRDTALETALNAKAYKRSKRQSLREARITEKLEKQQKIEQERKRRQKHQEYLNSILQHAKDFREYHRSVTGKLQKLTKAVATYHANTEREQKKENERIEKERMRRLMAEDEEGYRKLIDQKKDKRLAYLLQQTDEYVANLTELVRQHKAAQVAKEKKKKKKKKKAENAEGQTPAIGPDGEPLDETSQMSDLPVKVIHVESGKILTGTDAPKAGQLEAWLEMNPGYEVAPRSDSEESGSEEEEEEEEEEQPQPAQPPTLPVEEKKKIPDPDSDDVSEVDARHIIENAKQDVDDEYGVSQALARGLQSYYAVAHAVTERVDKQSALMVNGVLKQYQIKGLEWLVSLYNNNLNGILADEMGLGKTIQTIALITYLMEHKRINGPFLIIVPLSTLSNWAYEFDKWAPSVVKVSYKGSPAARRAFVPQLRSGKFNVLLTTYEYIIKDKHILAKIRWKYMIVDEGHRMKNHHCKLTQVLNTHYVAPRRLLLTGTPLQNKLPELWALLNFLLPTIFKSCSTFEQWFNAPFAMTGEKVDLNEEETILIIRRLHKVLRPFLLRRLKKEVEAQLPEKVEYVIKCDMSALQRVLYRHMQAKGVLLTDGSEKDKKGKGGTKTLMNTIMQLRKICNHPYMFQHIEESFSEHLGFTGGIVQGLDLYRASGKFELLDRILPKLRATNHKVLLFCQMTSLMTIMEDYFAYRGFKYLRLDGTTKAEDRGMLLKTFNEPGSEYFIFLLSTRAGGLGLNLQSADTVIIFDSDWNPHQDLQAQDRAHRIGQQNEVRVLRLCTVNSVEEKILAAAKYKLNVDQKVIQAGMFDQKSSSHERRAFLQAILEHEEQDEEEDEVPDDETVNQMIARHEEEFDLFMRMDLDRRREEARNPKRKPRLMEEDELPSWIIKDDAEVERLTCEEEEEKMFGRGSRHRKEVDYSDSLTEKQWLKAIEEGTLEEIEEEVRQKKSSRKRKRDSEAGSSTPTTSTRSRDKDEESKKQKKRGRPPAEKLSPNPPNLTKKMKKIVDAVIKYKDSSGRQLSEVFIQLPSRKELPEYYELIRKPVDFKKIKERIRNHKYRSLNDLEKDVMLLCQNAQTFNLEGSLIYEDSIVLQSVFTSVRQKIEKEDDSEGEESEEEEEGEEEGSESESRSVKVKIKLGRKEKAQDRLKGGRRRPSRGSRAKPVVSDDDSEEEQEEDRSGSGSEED

These are yes or no findings as the source states them, for the method shown. Some entries that bind do so weakly or less than the wild type.

For this assay, the target named is β-catenin (mouse (endogenous in primary murine hepatocytes)) (UniProt Q02248). In words: Re-ChIP (sequential chromatin immunoprecipitation); primary murine hepatocytes treated with or without ConA (20 μg/ml) for 24 h; chromatin cross-linked with 1% formaldehyde, sonicated; first immune complexes eluted (1% SDS, 100 mM NaCO3), diluted in re-ChIP buffer and precipitated with a second antibody; read out on the Npnt promoter (Gapdh promoter as control).

For “Brahma-related gene 1 (BRG1) (from UniProt Q3TKT4 1-1613)”, the binding entry is reported as “binds”.
